Drawing on PubChem BioAssay AID493014 (National Center for Advancing Translational Sciences (NCATS), 2011), this text covers AC50 for 16 compounds.

The nature of this assay: qHTS Assay to Find Inhibitors of Chronic Active B-Cell Receptor Signaling. As to conditions: ABC-DLBCL IkBa-CBG/CBR reporter, luminescence ratio (green luciferase fused to IkBa over red control in TMD8 lymphoma cells), 4 h. The essentials:
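TMD8 human ABC-DLBCL cells with doxycycline-inducible IκBα–green luciferase fusion and unfused red luciferase, in 0.5% FBS medium; compounds up to 46 uM, 4 h at 37C. Green/red luminescence ratio, filter-overlap corrected, fitted to concentration-response curves.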
(qHTS replaces the single test concentration by a dilution series.)

The mark [1] stands for this setting: measured here: CBR red luminescence, cell number.
Setting [2] is: measured here: IkBa-CBG green luminescence.

The list shows a part of the results. Shown are side measurements of this screen, not its main read-out; they come without a call. The list favours compounds with an active or inconclusive main result. Potencies come from curve fits of mixed quality, noted in brackets.

As usually defined, the AC50 is the concentration at which the activity in the assay is half-maximal. Consider `Cc1ccnc(NS(=O)(=O)c2ccc(NC(=O)c3c(-c4ccccc4Cl)noc3C)cc2)n1`, for which the half-maximal activity concentration (AC50) under setting [1] was 0.58 µM [falling, partial curve, poor fit]. Same read-out and setting: then `O=C(Nc1ccccc1-c1ccccc1)c1ccccc1[N+](=O)[O-]`, with 35.5 µM [rising, single point]; and `O=C(NC1CCCC1)C(c1ccncc1)N(CCCN1CCOCC1)C(=O)c1ccc(-c2ccccc2)[nH]1` (configuration not stated), with 1.41 µM [rising, full curve, poor fit]. Still for that read-out and setting: then `O=C(COc1ccc(Br)cc1F)NC1CC1`, with 13 µM [rising, partial curve, poor fit]; and `C=CCN(c1ccccc1)S(=O)(=O)c1cccc(C(=O)Nc2nnc(SCC)s2)c1`, with 20.6 µM [falling, single point]. The same measure, in the same setting: to `O=C(Nc1nnc(-c2cccnc2)o1)c1cccc(Cl)c1` belongs 4.47 µM [falling, full curve]; to `CCN1C(=O)CC(NNC(=O)c2ccccc2)C1=O` (configuration not stated), 20 µM [falling, single point]. Take `CCN(CC(=O)Nc1ccc2c(c1)OCCO2)C(=O)C1CC(=O)N(c2ccc(OC)cc2OC)C1` (configuration not stated): the concentration at half-maximal activity (AC50) under setting [1] was 1.46 µM [rising, full curve]. With `Cc1nn(Cc2ccccc2)c2c1C(c1cccnc1)C(C#N)=C(N)O2` (configuration not stated), the AC50 under setting [2] was 23.1 µM [falling, partial curve, poor fit]. As for `O=C(NC(=S)N1CCN(c2ccccc2)CC1)c1c(F)cccc1F`, the AC50 reads like this: under setting [1], 8.91 µM [rising, partial curve]; under setting [2], 15.8 µM [falling, partial curve, poor fit]. In the case of `N#Cc1ccccc1Sc1ccccc1C(=O)OCC(=O)N1CCN(C(=O)c2ccco2)CC1`, the AC50 under setting [1] was 22.4 µM [rising, single point].

Turning to `CCCSc1ccc([C@@H]2[C@H]3C(=O)N(CC)C(=O)[C@H]3[C@]3(C(=O)OC)CCCN23)cc1`, the AC50 under setting [2] is 4.11 µM [rising, partial curve, poor fit]. `N#C/C(=C\c1ccc(-c2ccc([N+](=O)[O-])cc2)o1)C(=O)Nc1nc(-c2cccs2)cs1`: the AC50 under setting [1] was 4.47 µM [rising, single point]. On the same count and under the same terms, then `Cc1ccc(SCCNC(=O)c2ccc(C)c([N+](=O)[O-])c2)cc1`, with 11.2 µM [rising, partial curve, poor fit]; and `O=C(Nc1ccc2c(c1)OCO2)c1ccc(S(=O)(=O)N2CCCC2)cc1`, with 15.8 µM [falling, single point]; and `CN(C(=O)CN1C(=O)S/C(=C\c2ccc(F)cc2)C1=O)C1CCS(=O)(=O)C1` (configuration not stated), with 11.2 µM [falling, single point].
